Data as given in PubChem BioAssay AID1224830 (NIAID, 2016).

Test: 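Regulators of TLR4 signalling towards TNF-alpha in macrophage-like cells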 (primary screen)
Cell system: human THP-1 monocytic leukaemia cells, TNF dual-luciferase reporter clone, PMA-differentiated to macrophage-like cells
Knock-down reagent: siRNA pool against human genes, 50 nM
Time to read-out: LPS for 4 h, given about 3 days after siRNA transfection
Treatment: bacterial LPS (TLR4 ligand), 10 ng/ml
Detection: 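TNF firefly reporter luminescence divided by renilla, normalised to the plate median, then turned into a robust z-score for each replicate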
Reading the numbers: TNF reporter robust z-score: higher = stronger TNF reporter response to LPS
Rule for the call: 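a well is active when its z-score exceeds 2.8 or falls below -1.5; control wells carry no call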
The whole screen tested about 18,000 reagents; shown is a part drawn at random. About 2,900 of all reagents (16%) count as active. 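Calls are made per well; low scores hint the gene aids the LPS response, high scores that it dampens it.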 Unmarked entries are inactive. Reagents against one gene are numbered here. Repeated entries: four replicate wells of each siRNA pool.

Depletion of PRF1 (perforin 1) came out at: TNF reporter robust z-score -0.09.
Knock-down of PRF1 (perforin 1) gave: TNF reporter robust z-score 0.44.
PRF1 (perforin 1) showed TNF reporter robust z-score 0.63.
Silencing of PRF1 (perforin 1) resulted in: TNF reporter robust z-score 1.04.
With knock-down of WFDC12 (WAP four-disulfide core domain 12), the record shows TNF reporter robust z-score 1.02.
Against WFDC12 (WAP four-disulfide core domain 12), the entry reads TNF reporter robust z-score 0.04.
Depletion of WFDC12 (WAP four-disulfide core domain 12) came out at: TNF reporter robust z-score 0.17.
Depletion of WFDC12 (WAP four-disulfide core domain 12) resulted in: TNF reporter robust z-score -0.42.
Silencing of MAFG (MAF bZIP transcription factor G) came out at: TNF reporter robust z-score -1.89 (active).
Depletion of MAFG (MAF bZIP transcription factor G) gave: TNF reporter robust z-score -2.41 (active).
Silencing of MAFG (MAF bZIP transcription factor G) resulted in: TNF reporter robust z-score -1.61 (active).
With knock-down of ZNF839 (zinc finger protein 839), the screen gave TNF reporter robust z-score -0.23.
Depletion of ZNF839 (zinc finger protein 839) resulted in: TNF reporter robust z-score -0.54.
Against ZNF839 (zinc finger protein 839) the deposit lists TNF reporter robust z-score -0.22.
ZNF839 (zinc finger protein 839) scored TNF reporter robust z-score 0.37.
Against USP17L9P the deposit lists TNF reporter robust z-score -1.66 (active).
Against USP17L9P, the values are TNF reporter robust z-score -1.11.
Against USP17L9P, the entry reads TNF reporter robust z-score -1.3.
USP17L9P gave TNF reporter robust z-score -1.58 (active).
Depletion of STAC (SH3 and cysteine rich domain) gave: TNF reporter robust z-score -0.37.
With knock-down of STAC (SH3 and cysteine rich domain) the results were TNF reporter robust z-score -0.02.
After knock-down of STAC (SH3 and cysteine rich domain), the record shows TNF reporter robust z-score 0.25.
Knock-down of STAC (SH3 and cysteine rich domain) gave: TNF reporter robust z-score -0.51.
TMEM163 (transmembrane protein 163) scored TNF reporter robust z-score 3.52 (active).
After knock-down of TMEM163 (transmembrane protein 163), the screen gave TNF reporter robust z-score 1.
TMEM163 (transmembrane protein 163) scored TNF reporter robust z-score 0.66.
Against TMEM163 (transmembrane protein 163), the values are TNF reporter robust z-score 0.76.
With knock-down of ADCY3 (adenylate cyclase 3), the screen gave TNF reporter robust z-score 2.58.
Against ADCY3 (adenylate cyclase 3) the deposit lists TNF reporter robust z-score 0.37.
With knock-down of ADCY3 (adenylate cyclase 3), the record shows TNF reporter robust z-score 1.65.
Silencing of ADCY3 (adenylate cyclase 3) resulted in: TNF reporter robust z-score 1.31.
For OR14J1 (olfactory receptor family 14 subfamily J member 1), the entry reads TNF reporter robust z-score -1.27.
Silencing of OR14J1 (olfactory receptor family 14 subfamily J member 1) gave: TNF reporter robust z-score -1.05.
OR14J1 (olfactory receptor family 14 subfamily J member 1) gave TNF reporter robust z-score -1.23.
Knock-down of OR14J1 (olfactory receptor family 14 subfamily J member 1) gave: TNF reporter robust z-score -1.34.
NEU2 (neuraminidase 2) gave TNF reporter robust z-score -1.36.
Depletion of NEU2 (neuraminidase 2) came out at: TNF reporter robust z-score -0.73.
Knock-down of NEU2 (neuraminidase 2) gave: TNF reporter robust z-score -0.66.
Silencing of NEU2 (neuraminidase 2) resulted in: TNF reporter robust z-score -0.5.
Knock-down of CFAP46 (cilia and flagella associated protein 46) #1 came out at: TNF reporter robust z-score -1.33.
Against CFAP46 (cilia and flagella associated protein 46) #1, the entry reads TNF reporter robust z-score -1.42.
With knock-down of CFAP46 (cilia and flagella associated protein 46) #1, the screen gave TNF reporter robust z-score -1.14.
CFAP46 (cilia and flagella associated protein 46) #1 showed TNF reporter robust z-score -0.99.
For CFAP46 (cilia and flagella associated protein 46) #2, the entry reads TNF reporter robust z-score 0.49.
Silencing of CFAP46 (cilia and flagella associated protein 46) #2 gave: TNF reporter robust z-score -0.7.
CFAP46 (cilia and flagella associated protein 46) #2 showed TNF reporter robust z-score 0.01.
With knock-down of CFAP46 (cilia and flagella associated protein 46) #2, the screen gave TNF reporter robust z-score 0.51.
With knock-down of CCL14 (C-C motif chemokine ligand 14), the screen gave TNF reporter robust z-score -0.67.
Against CCL14 (C-C motif chemokine ligand 14), the values are TNF reporter robust z-score 1.68.
Depletion of CCL14 (C-C motif chemokine ligand 14) came out at: TNF reporter robust z-score 0.08.
Knock-down of CCL14 (C-C motif chemokine ligand 14) resulted in: TNF reporter robust z-score 1.29.
Silencing of PLEKHM1P1 resulted in: TNF reporter robust z-score 1.68.
After knock-down of PLEKHM1P1, the screen gave TNF reporter robust z-score 2.74.
Against PLEKHM1P1, the entry reads TNF reporter robust z-score 4.55 (active).
Silencing of PLEKHM1P1 gave: TNF reporter robust z-score 1.33.
For TTI1 (TELO2 interacting protein 1) the deposit lists TNF reporter robust z-score 0.31.
For TTI1 (TELO2 interacting protein 1), the entry reads TNF reporter robust z-score 1.57.
Silencing of TTI1 (TELO2 interacting protein 1) resulted in: TNF reporter robust z-score -0.71.
TTI1 (TELO2 interacting protein 1) gave TNF reporter robust z-score 2.9 (active).
Against MYD88 (MYD88 innate immune signal transduction adaptor), the values are TNF reporter robust z-score -1.86 (active).
MYD88 (MYD88 innate immune signal transduction adaptor) showed TNF reporter robust z-score -1.6 (active).
Depletion of MYD88 (MYD88 innate immune signal transduction adaptor) resulted in: TNF reporter robust z-score -1.48.
For MYD88 (MYD88 innate immune signal transduction adaptor), the entry reads TNF reporter robust z-score -1.45.

Targets above whose gene name begins with M or m (7):
MAFG (MAF bZIP transcription factor G) | TNF reporter robust z-score: -1.89 (active)
MAFG (MAF bZIP transcription factor G) | TNF reporter robust z-score: -2.41 (active)
MAFG (MAF bZIP transcription factor G) | TNF reporter robust z-score: -1.61 (active)
MYD88 (MYD88 innate immune signal transduction adaptor) | TNF reporter robust z-score: -1.86 (active)
MYD88 (MYD88 innate immune signal transduction adaptor) | TNF reporter robust z-score: -1.6 (active)
MYD88 (MYD88 innate immune signal transduction adaptor) | TNF reporter robust z-score: -1.48
MYD88 (MYD88 innate immune signal transduction adaptor) | TNF reporter robust z-score: -1.45
